# Assay results reported in article PMC12548414.
# About 20 (1%) of roughly 1,600 compounds showed an effect of 50% or more. This is one part of the list.
# Test system: T1, E. coli pLC1021 (luc-trpAt trans-translation reporter)
# T1 construct: pLC1021 luc-trpAt reporter strain
# Set-up: species or system Escherichia coli pLC1021; luc-trpAt non-stop luciferase reporter; luminescence rises when trans-translation is inhibited; normalized to KKL-35 and DMSO
# Conditions: reporter signal, KKL-35 = 100%; rise means trans-translation inhibition; 2 h, 20 µM
# How it was run: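 Luminescence (560 nm, 10 min after Bright-Glo) reports luciferase that escapes trans-translation tagging, measured after 2 h room-temperature treatment with 20 µM compound. Each plate was scaled between DMSO (negative) and 20 µM KKL-35 (positive) controls. Compounds scoring one standard deviation above the median counted as positive; at least two biological repeats.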
row,Structure (SMILES),% activation [%]
1,COC(=O)COc1ccc(/C=C(/C#N)c2nc3ccccc3[nH]2)cc1 [KKL-1277],0
2,O=C1Nc2ccccc2C1=NN=CC1=C(N2CCOCC2)/C(=C/c2ccccc2)CC1 [KKL-0851],0
3,COc1ccc(C(CCNCc2ccc(F)cc2)c2ccc(F)cc2)cc1 (stereo not drawn) [KKL-0880],0
4,COc1cccc(-c2nc3c(N4CCCC4)cccc3n2CC2CCCN2)n1 (stereo not drawn) [KKL-1755],0
5,COc1cc(Br)cc2cc(C(=O)Nc3cccc(C(F)(F)F)c3)c(=O)oc12 [KKL-1294],0
6,Cc1ccc2nc(C(F)(F)F)c(C(=O)NCc3ccco3)n2c1 [KKL-1792],0
7,N#C/C(=C/c1ccc([N+](=O)[O-])o1)c1ccc(C#N)cc1 [KKL-0597],19
8,Cc1ccc([N+](=O)[O-])cc1NC(=O)CN(C(=O)c1ccccc1Cl)C1CCCCC1 [KKL-1640],0
9,Cc1c(CN(CCCn2ccnc2)Cc2ccc(F)cc2)[nH]c2ccc(F)cc12 [KKL-0545],2
10,CCOC(=O)COc1ccc2c(C)c(CC(=O)OC)c(=O)oc2c1 [KKL-1441],1
11,COC(=O)c1c(NC(=O)c2c(F)c(F)c(F)c(F)c2F)sc2c1CCCCC2 [KKL-1475],8
12,CN(C)CCN(Cc1ccc2c(c1)OCO2)C(=O)c1cc2cc(Cl)ccc2n1C [KKL-0701],0
13,CSc1ncc(C(=O)N2CCC(C3CCCCC3)C2)cn1 (stereo not drawn) [KKL-0672],0
14,CC(=O)Nc1nc2ccccc2n1CCOc1ccccc1 [KKL-0781],1
15,COc1ccc(-c2c(C)nn3c(O)c(Cc4ccccc4)c(C)nc23)cc1 [KKL-1526],4
16,CCN(CC)c1ccc(/C=C(/C#N)c2nc3ccccc3[nH]2)c(OC(C)C)c1 [KKL-1057],0
17,Cc1ccc(NC(=O)c2ccc(N3CCN(C)CC3)c([N+](=O)[O-])c2)cc1Cl [KKL-0904],2
18,Cc1cc2ncn(N=Cc3ccc([N+](=O)[O-])s3)c2cc1C [KKL-0376],32
19,COc1cc(CNC(C)c2ccccc2)cc(Cl)c1OCC(=O)Nc1ccccc1 (stereo not drawn) [KKL-1052],0
20,Cn1cc(CCNC(=O)Nc2ccc(N3CCCCC3)nc2)cn1 [KKL-1828],0
21,c1ccc(CCNc2ccnc3cc4ccccc4cc23)cc1 [KKL-1051],0
22,CCOC(=O)c1cnc(-n2nc(C)cc2C)nc1NC(C)c1ccccc1 (stereo not drawn) [KKL-0990],5
23,CCOCn1ccc(NS(=O)(=O)c2ccc(N)cc2)nc1=O [KKL-1854],0
24,CN(C)S(=O)(=O)c1ccc(C(=O)Nc2nnc(-c3ccc(Cl)s3)o2)cc1 [KKL-1747],1
25,c1ccc(-c2nc(NCCCn3ccnc3)c3ccccc3n2)cc1 [KKL-0792],0
26,COc1cccc(-n2nnnc2S(=O)(=O)Cc2ccccc2)c1 [KKL-1193],0
27,OC(CN1CCC2(CC1)CC(O)c1cc(Cl)ccc1O2)c1ccc(Cl)cc1 (stereo not drawn) [KKL-0934],0

row,Structure (SMILES),% activation [%]
1,O=C(CCNc1cccc(Cl)c1)c1ccc([N+](=O)[O-])cc1 [KKL-1449],0
2,Cc1ccccc1-n1ncc(C(C)NC(=O)c2ccc3c(c2)no[n+]3[O-])c1C (stereo not drawn) [KKL-1140],0
3,COc1cc(/C=C/C2=CCN(C)CC2)ccc1OCC(=O)Nc1cccc(Cl)c1 [KKL-0529],3
4,CCOc1cc2ccccc2cc1C(=O)NC [KKL-1734],0
5,Cc1ccc(CN(CCCn2ccnc2)Cc2[nH]c3ccc(F)cc3c2C)s1 [KKL-1202],20
6,COc1ccc(-c2cncc(-c3cc(N4CCN(CCO)CC4)nc(-c4ccccc4)n3)c2)cc1 [KKL-1682],0
7,Cc1sc2nc(C(C)C)n(C3CCN(C(=O)c4ccncc4)CC3)c(=O)c2c1C [KKL-0464],14
8,Cn1nc(-c2cccnc2)cc1CN1CCN(C(=O)c2cc3ccc(Cl)cc3[nH]2)CC1 [KKL-1238],3
9,Cc1ccc(Nc2nnc(SCC(=O)Nc3cccnc3Cl)s2)cc1C [KKL-0826],0
10,CSc1ccc(C(=O)C2CCCN(Cc3ccc(C#CCCO)cc3)C2)cc1 (stereo not drawn) [KKL-1157],2
11,O=C(CNCCN1CCOCC1)Nc1sc2c(c1C(=O)Nc1ccccc1)CCC2 [KKL-1074],2
12,CC(=O)c1ccc(NC(S)=Nc2ccc(Br)c(Cl)c2)cc1 [KKL-1333],0
13,CCOc1ccc(Nc2nc(-c3ccccn3)cs2)cc1 [KKL-1101],0
14,CC1=CCC(c2cnc(-c3ccccc3)c(C)c2)NC1c1ccccc1 (stereo not drawn) [KKL-0448],0
15,Cc1cccc(C2c3[nH]c4ccccc4c3CCN2Cc2ccc3cc(F)ccc3n2)n1 (stereo not drawn) [KKL-0645],0
16,CCOC(=O)c1ccc(NC(=O)CSc2nnc(-c3ccc(OC)cc3)o2)cc1 [KKL-1405],4
17,COC(=O)CSc1nc(N)c2c3c(sc2n1)CCCC3 [KKL-0994],9
18,O=C(CCCSc1ccccc1)NNC(=O)c1cccs1 [KKL-1709],3
19,Cc1ccccc1NC(=O)c1ccccc1NC(=S)NC(=O)c1cccnc1 [KKL-1211],9
20,O=C(N[C@@H](Cc1ccccc1)C(=O)Nc1ccccc1N1CCOCC1)c1cccs1 [KKL-1871],4
21,Cc1nn(-c2ccccc2)c2nc(O)c(CNCc3ccccc3OC(C)C)cc12 [KKL-1037],0
22,Cc1ccc(NC(=O)C(=O)NNC(=O)c2ccco2)cc1Cl [KKL-1500],0
23,Cc1ccc2c(c1)c(-c1ccccc1)c(-c1ccccc1)n2CC(O)CN1CCN(CCO)CC1 (stereo not drawn) [KKL-1406],4
24,CC(C)(C)c1ccc(OCCN2C(=O)C(=O)c3cc(Br)ccc32)cc1 [KKL-0862],0
25,CCn1nnc(NC(=O)c2sc3ccccc3c2Cl)n1 [KKL-0870],0
26,CC(C)(C)c1ccc(C(=O)Nc2cccc(NC(=O)c3cccs3)c2)cc1 [KKL-0867],0
27,CSc1ccccc1C(=O)C1CCCN(C(=O)c2ccc3c(c2)no[n+]3[O-])C1 (stereo not drawn) [KKL-0339],0

# In the list so far, these have a tert-butyl group.
row,Structure (SMILES),% activation [%]
24,CC(C)(C)c1ccc(OCCN2C(=O)C(=O)c3cc(Br)ccc32)cc1 [KKL-0862],0
26,CC(C)(C)c1ccc(C(=O)Nc2cccc(NC(=O)c3cccs3)c2)cc1 [KKL-0867],0

# In the list so far, two have a CF3 group.
row,Structure (SMILES),% activation [%]
5,COc1cc(Br)cc2cc(C(=O)Nc3cccc(C(F)(F)F)c3)c(=O)oc12 [KKL-1294],0
6,Cc1ccc2nc(C(F)(F)F)c(C(=O)NCc3ccco3)n2c1 [KKL-1792],0
